The other results are listed elsewhere or left out. Most values lie at the level of the controls, where differences are scatter.

Chains of the proteins cited; added tags and fusions are not shown. Lines headed by an entry give the natural chain unless they say otherwise; changes in a name come on top.
UniProt Q96HT8: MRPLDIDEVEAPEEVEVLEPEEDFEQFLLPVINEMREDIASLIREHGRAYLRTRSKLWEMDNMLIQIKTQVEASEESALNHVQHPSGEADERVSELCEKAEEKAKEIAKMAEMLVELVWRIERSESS
UniProt Q96P50: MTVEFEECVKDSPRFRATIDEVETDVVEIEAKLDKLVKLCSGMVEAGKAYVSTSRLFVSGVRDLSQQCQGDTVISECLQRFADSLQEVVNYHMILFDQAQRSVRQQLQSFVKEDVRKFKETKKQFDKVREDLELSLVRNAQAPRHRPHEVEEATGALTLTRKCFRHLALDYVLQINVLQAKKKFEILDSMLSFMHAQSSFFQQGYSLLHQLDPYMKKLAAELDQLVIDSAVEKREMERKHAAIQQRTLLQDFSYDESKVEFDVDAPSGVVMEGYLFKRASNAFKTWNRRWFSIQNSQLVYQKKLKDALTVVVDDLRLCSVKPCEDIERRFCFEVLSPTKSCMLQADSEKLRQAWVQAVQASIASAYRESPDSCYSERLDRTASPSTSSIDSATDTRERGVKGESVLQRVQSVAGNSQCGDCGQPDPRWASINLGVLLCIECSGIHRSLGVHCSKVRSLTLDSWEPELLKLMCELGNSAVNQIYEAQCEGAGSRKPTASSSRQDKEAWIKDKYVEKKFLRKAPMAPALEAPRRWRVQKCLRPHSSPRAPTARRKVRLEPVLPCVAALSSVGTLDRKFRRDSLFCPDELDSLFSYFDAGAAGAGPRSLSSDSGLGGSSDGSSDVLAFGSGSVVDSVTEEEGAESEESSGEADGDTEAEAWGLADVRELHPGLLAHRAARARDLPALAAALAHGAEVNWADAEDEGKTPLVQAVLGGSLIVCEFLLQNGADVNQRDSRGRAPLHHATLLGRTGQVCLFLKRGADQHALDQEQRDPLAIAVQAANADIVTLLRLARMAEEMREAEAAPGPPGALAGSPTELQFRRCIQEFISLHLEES
UniProt Q99436: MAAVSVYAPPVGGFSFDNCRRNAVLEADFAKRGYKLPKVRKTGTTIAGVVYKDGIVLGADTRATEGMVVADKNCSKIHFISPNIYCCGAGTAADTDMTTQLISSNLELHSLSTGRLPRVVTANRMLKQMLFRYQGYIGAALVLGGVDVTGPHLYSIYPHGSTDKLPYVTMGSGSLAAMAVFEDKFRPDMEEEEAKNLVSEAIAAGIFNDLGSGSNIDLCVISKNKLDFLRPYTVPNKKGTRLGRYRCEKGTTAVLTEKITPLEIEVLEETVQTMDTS
UniProt Q96QC0: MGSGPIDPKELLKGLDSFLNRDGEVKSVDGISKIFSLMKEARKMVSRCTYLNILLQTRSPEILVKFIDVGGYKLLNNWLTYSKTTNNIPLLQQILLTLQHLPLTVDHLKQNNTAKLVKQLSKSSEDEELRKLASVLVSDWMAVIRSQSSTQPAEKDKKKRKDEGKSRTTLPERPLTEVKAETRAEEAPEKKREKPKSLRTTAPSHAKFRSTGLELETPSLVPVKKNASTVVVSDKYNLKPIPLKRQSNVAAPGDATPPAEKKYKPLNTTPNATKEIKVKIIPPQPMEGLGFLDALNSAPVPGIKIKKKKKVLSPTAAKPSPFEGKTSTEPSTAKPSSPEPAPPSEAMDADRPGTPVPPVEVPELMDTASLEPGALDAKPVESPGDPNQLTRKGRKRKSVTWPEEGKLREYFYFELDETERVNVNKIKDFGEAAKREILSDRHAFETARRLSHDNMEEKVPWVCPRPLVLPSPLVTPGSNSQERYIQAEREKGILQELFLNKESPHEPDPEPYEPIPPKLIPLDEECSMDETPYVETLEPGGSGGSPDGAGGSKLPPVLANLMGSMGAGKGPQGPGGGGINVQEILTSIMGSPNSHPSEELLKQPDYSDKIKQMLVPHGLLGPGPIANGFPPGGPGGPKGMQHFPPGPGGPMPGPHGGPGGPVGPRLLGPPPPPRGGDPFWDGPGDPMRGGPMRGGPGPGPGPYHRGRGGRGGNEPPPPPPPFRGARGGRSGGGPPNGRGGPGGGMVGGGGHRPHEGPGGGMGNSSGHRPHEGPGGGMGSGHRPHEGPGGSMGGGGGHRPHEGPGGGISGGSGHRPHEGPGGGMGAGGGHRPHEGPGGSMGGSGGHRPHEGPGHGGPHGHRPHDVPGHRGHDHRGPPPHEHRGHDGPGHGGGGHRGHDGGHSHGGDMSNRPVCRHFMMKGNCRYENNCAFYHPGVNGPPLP
UniProt Q96KQ7: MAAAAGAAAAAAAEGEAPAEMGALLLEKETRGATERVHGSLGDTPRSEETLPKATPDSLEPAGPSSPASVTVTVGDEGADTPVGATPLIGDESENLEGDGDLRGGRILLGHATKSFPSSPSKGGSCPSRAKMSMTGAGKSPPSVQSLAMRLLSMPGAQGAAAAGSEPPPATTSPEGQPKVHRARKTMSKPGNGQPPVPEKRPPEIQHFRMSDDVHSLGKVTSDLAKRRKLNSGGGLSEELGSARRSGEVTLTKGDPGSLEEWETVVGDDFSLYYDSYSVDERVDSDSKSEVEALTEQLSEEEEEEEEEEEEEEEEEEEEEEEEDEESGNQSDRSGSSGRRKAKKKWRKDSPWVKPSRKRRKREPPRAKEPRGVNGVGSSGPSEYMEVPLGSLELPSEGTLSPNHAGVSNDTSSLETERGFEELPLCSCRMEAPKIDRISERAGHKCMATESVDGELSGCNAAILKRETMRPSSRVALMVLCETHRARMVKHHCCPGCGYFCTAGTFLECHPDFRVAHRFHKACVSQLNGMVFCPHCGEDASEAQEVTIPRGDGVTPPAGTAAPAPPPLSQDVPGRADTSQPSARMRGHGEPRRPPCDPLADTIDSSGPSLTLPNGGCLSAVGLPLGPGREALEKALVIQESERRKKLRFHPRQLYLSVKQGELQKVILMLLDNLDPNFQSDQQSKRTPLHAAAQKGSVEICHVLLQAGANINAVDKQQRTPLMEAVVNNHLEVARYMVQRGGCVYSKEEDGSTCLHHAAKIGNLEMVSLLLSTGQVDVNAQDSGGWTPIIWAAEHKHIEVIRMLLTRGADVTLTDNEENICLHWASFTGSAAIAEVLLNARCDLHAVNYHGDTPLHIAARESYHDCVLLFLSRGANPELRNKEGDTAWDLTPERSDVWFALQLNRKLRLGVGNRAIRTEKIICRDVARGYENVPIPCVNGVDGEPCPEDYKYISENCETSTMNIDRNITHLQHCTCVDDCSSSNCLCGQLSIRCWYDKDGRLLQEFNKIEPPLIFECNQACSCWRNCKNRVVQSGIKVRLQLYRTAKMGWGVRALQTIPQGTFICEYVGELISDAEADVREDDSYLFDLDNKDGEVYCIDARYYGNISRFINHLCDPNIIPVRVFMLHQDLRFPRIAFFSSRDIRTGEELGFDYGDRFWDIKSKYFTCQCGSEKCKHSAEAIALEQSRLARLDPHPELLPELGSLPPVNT
UniProt Q96PM5: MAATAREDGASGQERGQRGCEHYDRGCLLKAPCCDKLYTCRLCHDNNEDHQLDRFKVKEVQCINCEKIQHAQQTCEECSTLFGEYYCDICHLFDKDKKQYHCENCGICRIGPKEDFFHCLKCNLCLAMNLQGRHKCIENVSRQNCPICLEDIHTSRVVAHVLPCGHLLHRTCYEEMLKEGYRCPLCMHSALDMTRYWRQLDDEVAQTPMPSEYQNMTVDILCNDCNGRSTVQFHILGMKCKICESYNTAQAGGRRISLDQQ
UniProt Q96I76: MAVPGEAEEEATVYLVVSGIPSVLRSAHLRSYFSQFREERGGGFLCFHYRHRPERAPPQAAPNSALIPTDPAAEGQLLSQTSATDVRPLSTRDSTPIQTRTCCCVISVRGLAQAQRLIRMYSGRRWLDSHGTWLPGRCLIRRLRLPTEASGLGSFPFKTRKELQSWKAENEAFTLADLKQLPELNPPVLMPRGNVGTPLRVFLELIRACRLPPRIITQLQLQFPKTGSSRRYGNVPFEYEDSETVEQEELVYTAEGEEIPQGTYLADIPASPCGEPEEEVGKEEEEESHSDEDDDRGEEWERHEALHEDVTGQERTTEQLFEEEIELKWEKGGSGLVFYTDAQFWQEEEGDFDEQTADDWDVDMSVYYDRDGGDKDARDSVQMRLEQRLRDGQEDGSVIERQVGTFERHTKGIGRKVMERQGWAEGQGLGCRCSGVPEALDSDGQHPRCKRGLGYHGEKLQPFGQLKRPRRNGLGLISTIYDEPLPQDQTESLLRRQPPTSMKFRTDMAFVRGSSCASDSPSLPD
UniProt Q96ME7: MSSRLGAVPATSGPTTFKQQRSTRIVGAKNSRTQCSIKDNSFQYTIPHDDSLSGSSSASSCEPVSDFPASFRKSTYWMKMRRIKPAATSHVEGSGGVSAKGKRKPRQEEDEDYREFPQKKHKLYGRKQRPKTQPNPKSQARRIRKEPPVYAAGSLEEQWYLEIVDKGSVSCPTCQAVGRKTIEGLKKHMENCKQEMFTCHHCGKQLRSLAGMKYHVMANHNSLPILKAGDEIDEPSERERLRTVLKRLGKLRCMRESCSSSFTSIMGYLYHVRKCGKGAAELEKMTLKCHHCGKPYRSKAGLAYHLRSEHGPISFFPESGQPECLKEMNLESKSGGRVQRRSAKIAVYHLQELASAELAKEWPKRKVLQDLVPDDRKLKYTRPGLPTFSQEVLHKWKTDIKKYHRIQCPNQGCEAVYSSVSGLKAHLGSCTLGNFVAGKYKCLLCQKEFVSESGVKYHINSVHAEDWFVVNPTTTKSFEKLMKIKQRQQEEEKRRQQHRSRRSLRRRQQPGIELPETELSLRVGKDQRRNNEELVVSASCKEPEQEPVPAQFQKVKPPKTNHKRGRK
UniProt Q96IY4: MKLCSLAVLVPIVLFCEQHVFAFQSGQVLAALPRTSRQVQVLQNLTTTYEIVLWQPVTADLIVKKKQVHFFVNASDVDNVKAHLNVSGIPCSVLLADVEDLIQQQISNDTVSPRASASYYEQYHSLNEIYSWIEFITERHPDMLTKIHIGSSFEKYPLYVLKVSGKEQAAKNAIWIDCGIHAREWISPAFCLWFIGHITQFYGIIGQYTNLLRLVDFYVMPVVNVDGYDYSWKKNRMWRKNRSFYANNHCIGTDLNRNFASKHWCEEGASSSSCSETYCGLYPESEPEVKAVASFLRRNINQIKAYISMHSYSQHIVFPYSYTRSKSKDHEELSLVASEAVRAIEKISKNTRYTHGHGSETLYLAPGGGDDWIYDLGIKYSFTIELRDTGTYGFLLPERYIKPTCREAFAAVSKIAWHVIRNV
UniProt Q96GY3: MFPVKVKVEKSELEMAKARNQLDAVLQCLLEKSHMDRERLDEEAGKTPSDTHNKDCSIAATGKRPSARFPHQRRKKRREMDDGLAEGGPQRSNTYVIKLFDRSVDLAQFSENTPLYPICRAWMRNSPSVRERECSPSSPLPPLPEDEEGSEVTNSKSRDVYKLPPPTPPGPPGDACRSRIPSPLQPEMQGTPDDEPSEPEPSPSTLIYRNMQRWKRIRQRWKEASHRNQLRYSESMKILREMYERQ
UniProt Q96IU4: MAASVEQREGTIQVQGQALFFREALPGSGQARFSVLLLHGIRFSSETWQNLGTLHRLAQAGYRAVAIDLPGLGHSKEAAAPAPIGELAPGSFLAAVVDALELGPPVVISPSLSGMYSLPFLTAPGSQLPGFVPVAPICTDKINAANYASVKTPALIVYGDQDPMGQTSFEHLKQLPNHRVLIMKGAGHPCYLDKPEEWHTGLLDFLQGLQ
UniProt Q99442: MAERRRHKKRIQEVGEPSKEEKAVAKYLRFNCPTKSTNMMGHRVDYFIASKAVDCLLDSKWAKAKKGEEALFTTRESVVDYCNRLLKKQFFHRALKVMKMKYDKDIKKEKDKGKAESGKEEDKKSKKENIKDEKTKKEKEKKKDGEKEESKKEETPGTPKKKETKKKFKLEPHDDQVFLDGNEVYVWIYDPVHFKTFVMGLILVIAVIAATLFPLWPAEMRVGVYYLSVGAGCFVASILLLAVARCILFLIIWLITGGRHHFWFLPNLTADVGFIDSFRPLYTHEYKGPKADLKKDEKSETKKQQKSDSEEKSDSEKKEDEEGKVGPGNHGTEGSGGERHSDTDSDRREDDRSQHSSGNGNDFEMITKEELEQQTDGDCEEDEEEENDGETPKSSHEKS
UniProt Q96HR3: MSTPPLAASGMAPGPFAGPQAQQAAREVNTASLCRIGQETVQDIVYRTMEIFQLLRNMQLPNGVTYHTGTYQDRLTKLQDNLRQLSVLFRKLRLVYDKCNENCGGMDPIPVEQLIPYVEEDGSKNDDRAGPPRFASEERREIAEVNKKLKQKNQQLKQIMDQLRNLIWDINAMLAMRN
UniProt Q96LZ2: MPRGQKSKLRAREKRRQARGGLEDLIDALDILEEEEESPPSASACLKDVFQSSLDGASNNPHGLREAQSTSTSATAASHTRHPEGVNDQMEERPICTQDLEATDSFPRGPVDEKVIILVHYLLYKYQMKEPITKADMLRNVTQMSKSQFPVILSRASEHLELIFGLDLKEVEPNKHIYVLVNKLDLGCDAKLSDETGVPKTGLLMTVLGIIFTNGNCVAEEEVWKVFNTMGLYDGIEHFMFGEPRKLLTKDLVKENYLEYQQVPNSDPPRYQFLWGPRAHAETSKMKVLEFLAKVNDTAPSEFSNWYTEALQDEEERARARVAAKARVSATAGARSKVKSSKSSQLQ

Compound in this assay: CN[C@@H]1C[C@H]2O[C@@](C)([C@@H]1OC)n1c3ccccc3c3c4c(c5c6ccccc6n2c5c31)C(=O)NC4 [staurosporine]
In words: log2 fold change of tryptic peptide abundance, ligand vs vehicle (limited proteolysis) (log2 ratio); higher = more trypsin-susceptible (destabilized). To be noted: ligand concentration: 20 uM; sample: K562 cleared lysate; digestion: 4 min, 22 C (HT-PELSA RT4min, Orbitrap Astral).
With “UniProt Q96HT8 (peptide sequence: EDIASLIR, peptide start residue: 37)”, the log2 fold change came to 0.23.
With “ACAP3 (peptide sequence: EDLELSLVR, peptide start residue: 130) (UniProt Q96P50)” the figure was -0.363; with “UniProt Q96JG6 (peptide sequence: IPLPVSNILWEHCIR, peptide start residue: 839)”, 0.389.
Take “ZNF48 (peptide sequence: VHTGEKPYLCPECGK, peptide start residue: 324) (UniProt Q96MX3)”: the log2 fold change was found to be 0.429.
The result for “PSMB7 (peptide sequence: NAVLEADFAKR, peptide start residue: 22) (UniProt Q99436)” reads 0.549.
The result for “SGSM3 (peptide sequence: QTELVADLR, peptide start residue: 428) (UniProt Q96HU1)” reads 0.266.
Regarding “PPP1R10 (peptide sequence: QSNVAAPGDATPPAEKK, peptide start residue: 246) (UniProt Q96QC0)”, the log2 fold change is -0.148.
With “USP47 (peptide sequence: FLEVDEYPEHIK, peptide start residue: 572) (UniProt Q96K76)”, the log2 fold change was 0.29.
“LENG8 (peptide sequence: ADPCVAHALALR, peptide start residue: 692) (UniProt Q96PV6)”: the log2 fold change is -0.26.
With “ZNF512B (peptide sequence: AMPVTKPITVTK, peptide start residue: 251) (UniProt Q96KM6)” the figure was 0.153; with “EHMT2 (peptide sequence: ADTSQPSAR, peptide start residue: 576) (UniProt Q96KQ7)”, -0.189.
With “UniProt Q96ND0 (peptide sequence: LQETKEK, peptide start residue: 258)” the figure was -0.0718; with “RCHY1 (peptide sequence: CKICESYNTAQAGGR, peptide start residue: 240) (UniProt Q96PM5)”, -0.362; with “WRNIP1 (peptide sequence: KSGQSYSPSR, peptide start residue: 464) (UniProt Q96S55)”, 0.849.
With “GPATCH3 (peptide sequence: HEALHEDVTGQER, peptide start residue: 303) (UniProt Q96I76)” the figure was 0.42.
On to “BOD1 (peptide sequence: QKVDNFVSTHLDKQEWNPTMNK, peptide start residue: 87) (UniProt Q96IK1)”, for which the log2 fold change was determined as 0.604.
As for “MBOAT7 (peptide sequence: KAASQPTSLAPEK, peptide start residue: 456) (UniProt Q96N66)”, the log2 fold change is -0.2.
With “KIF20B (peptide sequence: DYLQVCLR, peptide start residue: 57) (UniProt Q96Q89)” the figure was -0.713.
With “SPEN (peptide sequence: EQMADMAK, peptide start residue: 1318) (UniProt Q96T58)” the figure was 1.1; with “VPS13A (peptide sequence: ATETSEVESLRPPR, peptide start residue: 3027) (UniProt Q96RL7)”, 0.339; with “SDF2 (peptide sequence: AEAHHAEL, peptide start residue: 204) (UniProt Q99470)”, 0.358.
With “KCTD15 (peptide sequence: VTPDLGER, peptide start residue: 173) (UniProt Q96SI1)” the figure was 0.241; with “RANBP9 (peptide sequence: HDHEMEDCDTEMEVDSSQLR, peptide start residue: 587) (UniProt Q96S59)”, -0.25; with “ZNF512 (peptide sequence: VLQDLVPDDRK, peptide start residue: 367) (UniProt Q96ME7)”, -0.239.
In the case of “UniProt Q96IY4 (peptide sequence: VSGKEQAAK, peptide start residue: 163)”, the log2 fold change is -0.221.
Consider “LIN37 (peptide sequence: REMDDGLAEGGPQR, peptide start residue: 78) (UniProt Q96GY3)”, for which the log2 fold change was -0.779.
Regarding “ABHD14B (peptide sequence: AVAIDLPGLGHSK, peptide start residue: 64) (UniProt Q96IU4)”, the log2 fold change is 0.262.
For the target “TMEM209 (peptide sequence: SQAPCANKDEADLSSK, peptide start residue: 297) (UniProt Q96SK2)”, the log2 fold change is -0.342.
As to “SEC62 (peptide sequence: ENIKDEK, peptide start residue: 128) (UniProt Q99442)”, the log2 fold change came to 0.0579.
The result for “TUBGCP5 (peptide sequence: LSISFENVDTAK, peptide start residue: 777) (UniProt Q96RT8)” reads -0.438.
For the target “MED30 (peptide sequence: QLSVLFR, peptide start residue: 84) (UniProt Q96HR3)”, the log2 fold change was determined as 0.213.
With “MAGEB10 (peptide sequence: VIILVHYLLYK, peptide start residue: 115) (UniProt Q96LZ2)” the figure was 0.259; with “PWWP2A (peptide sequence: MYREEPTSIMNAIK, peptide start residue: 301) (UniProt Q96N64)”, 0.44; with “IPO9 (peptide sequence: WTNIPLLVK, peptide start residue: 908) (UniProt Q96P70)”, 0.231.
The result for “LRCH3 (peptide sequence: WSGNEPTDEFSDLPLR, peptide start residue: 323) (UniProt Q96II8)” reads -0.704; that for “UniProt Q96SF7 (peptide sequence: TPSLISGIPTPPSLPGNSK, peptide start residue: 443)”, 0.315.
The result for “ALKBH3 (peptide sequence: EFVFKEPQQVVR, peptide start residue: 53) (UniProt Q96Q83)” reads -0.11.

The values are drawn from the supplement of paper PMC12819154, “High-throughput peptide-centric local stability assay extends protein–ligand identification to membrane proteins, tissues and bacteria” (Nature Structural & Molecular Biology, 2025).
